Data as given in PubChem BioAssay AID504784 (Drosophila RNAi Screening Center, 2011).
The deposit covers about 17,000 reagents; this is an unselected part of those with a known target gene and a result. 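Each column is one replicate's B-score; the combined score over replicates was not deposited, so single values may mislead.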 Names joined by + are all predicted targets of the reagent. Further read-outs or replicates are left out here. No sequences are given here.

Assay: 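Search for regulators of lipid droplet storage in oleate-fed fly cells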 (primary screen)
Cell system: Drosophila Kc167 embryonic cells
Knock-down reagent: long dsRNA against Drosophila genes, about 250 ng dsRNA per well
Time to read-out: 4 days
Challenge: cells fed 400 µM oleic acid bound to BSA
Read-out: 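Cells imaged and segmented; ratio of lipid droplet area to nuclear area, log-transformed, then normalised as a B-score over the screen; higher means more stored lipid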
Scale: droplet/nuclear area B-score: higher = more stored lipid (overstorage)

no.	gene	DRSC id	droplet/nuclear area B-score, replicate 1	droplet/nuclear area B-score, replicate 2
1	alpha-Man-Ib	DRSC14418	0.0248	-0.681
2	CG18011	DRSC06697	-0.971	-0.0237
3	CG18011	DRSC06706	-2.69	0.186
4	Ir54a + sub	DRSC06459	1.58	0.00884
5	Dys + snoRNA:Me18S-A1374	DRSC16232	1.44	4.73
6	shn	DRSC05266	-1.27	1.51
7	shn	DRSC07681	-0.957	1.2
8	Fcp3C	DRSC18665	-0.0134	-0.839
9	slp1	DRSC00835	0.75	0.162
10	SPARC	DRSC14123	1.75	-0.0741
11	TBC1d7	DRSC15985	0.443	1.01
12	Cad89D	DRSC15022	1.23	-0.000747
13	CHOp24	DRSC18310	-0.819	
14	CG17652	DRSC00511	-0.597	2.51
15	Cda5	DRSC00003	-1.41	0.4
16	Cda5	DRSC00529	1.47	-0.0176
17	Cda5	DRSC00532	-0.192	-1.03
18	Cda5	DRSC21330	2.06	-0.13
19	PolD3	DRSC01961	-0.698	-0.232
20	FAM21	DRSC06623	-0.961	-1.37
21	CG1724	DRSC20548	-0.247	0.423
22	CG3287 (retired record)	DRSC04991	-0.0785	0.278
23	RpL10Ab	DRSC10798	3.18	5.91
24	r-l	DRSC17042	7.12	1.27
25	r-l	DRSC22784	0.856	-2.09
26	CG42262 (retired record)	DRSC17628	1.52	0.0267
27	CG42262 (retired record)	DRSC17974	0.88	-0.549
28	CG17260	DRSC00497	0.0261	-0.335
29	CG1889 + CG43386	DRSC17979	-0.921	-0.0367
30	mirr	DRSC11369	1.47	1.71
31	CG3492	DRSC04373	0.642	0.0186
32	Cdc16	DRSC16920	-0.0004	1.12
33	Scamp	DRSC20286	-1.42	-1.63
34	CG42537	DRSC12519	-1.85	-1.68

In a second layout: results already given
{"gene": "mirr", "DRSC id": "DRSC11369", "droplet/nuclear area B-score, replicate 1": 1.47, "droplet/nuclear area B-score, replicate 2": 1.71}
{"gene": "CG3492", "DRSC id": "DRSC04373", "droplet/nuclear area B-score, replicate 1": 0.642, "droplet/nuclear area B-score, replicate 2": 0.0186}
{"gene": "Cdc16", "DRSC id": "DRSC16920", "droplet/nuclear area B-score, replicate 1": -0.0004, "droplet/nuclear area B-score, replicate 2": 1.12}
